From PubChem BioAssay AID2685 (National Center for Advancing Translational Sciences (NCATS), 2010)
About 2,100 (0.66%) of roughly 320,000 compounds were called active. The inconclusive results got no clear call from the source; some entries with a clear call stand among them for comparison. Calls come from the whole dose curve; as a rule, active = well fitted inhibition curve with a large enough effect in the signal ratio, with a control signal flat (not every such curve was filed as active); inconclusive = small, poorly fitted or top-dose-only effect, or effect the other way, or a change in a side signal; inactive = flat fitted curve, though single readings scatter; the % refers to the signal ratio. A potency beside an inconclusive call is a rough fit, not a confirmed value.

experiment: qHTS Assay for Lipid Storage Modulators in Drosophila S3 Cells; conditions: BODIPY lipid droplet fluorescence, 18-24 h, cells fed with added oleic acid; lipid storage change, negative = inhibition: at 46.1 µM (top of the series) unless noted
Summary of the method: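 Drosophila S3 cells loaded with oleic acid (400 uM, as added) and compounds at several concentrations; lipid droplets imaged by 488-nm laser-scanning cytometry, 500–530 nm intensity and object ratio to cell channel. Percent activity normalized to 20 uM Triacsin C.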
% is set by controls: 0 for no effect and ±100 for the full control effect; potency is the fitted concentration of half-maximal effect.

Potency, inconclusive:
COc1ccc(C(=O)C(C)N(C(=O)c2ccc(Cl)cc2Cl)N2C(=O)C3C4C=CC(C4)C3C2=O)cc1 (configuration not stated) 29.1 µM [falling, single point]
COc1ccc([C@@H]2[C@@H]3C(=O)N(C(C)(C)C)C(=O)[C@@H]3[C@]3(Cc4ccccc4)C(=O)N(c4ccc(OC)cc4)C(=O)N23)cc1 5.8 µM [activator, full curve, poor fit]
COc1ccccc1CCC(=O)N(C)CC(=O)Nc1ccc(Cl)c(C(F)(F)F)c1 10.3 µM [falling, partial curve]
CCOc1ccc(NC(=O)C2CSC(c3ccncc3)=N2)cc1 (configuration not stated) 0.259 µM [activator, partial curve]
CCCCNC(=O)COC(=O)c1cc(C)nc2ccccc12 18.4 µM [falling, partial curve]
CCNC(=S)N/N=C/c1cccc(C)c1 2.59 µM [activator, partial curve, poor fit]
Cc1cccc(N2C(=O)C3C4C=CC(CC4)C3C2=O)c1 (configuration not stated) 14.6 µM [activator, partial curve, poor fit]
CCn1cc(C(=O)N2CCCC2)c(=O)c2cc(S(=O)(=O)N3CC(C)CC(C)C3)ccc21 (configuration not stated) 0.0052 µM [activator, full curve, poor fit]
CCc1nc2ccc(C(=O)O)cc2nc1CC 29.1 µM [falling, single point]
COc1ccc(Cc2n[nH]c(=S)n2NC(=O)Nc2ccc(Cl)c(Cl)c2)cc1 29.1 µM [falling, single point]
O=C(O)c1ccc(N/N=C/c2cn(-c3ccccc3)nc2-c2cccs2)cc1 18.4 µM [activator, single point]
C=CCSc1n[nH]c(-c2ccc(OCCCC)cc2)n1 0.13 µM [falling, full curve, poor fit]
Cc1ccc(S(=O)(=O)NCc2nc3ccccc3c(=O)n2N)cc1 4.11 µM [falling, full curve, poor fit]
C=C1C(=O)O[C@H]2[C@H]1[C@@H](O)CC(=C)[C@@H]1CC(=O)[C@@H](C)[C@H]21 29.1 µM [falling, single point]

2 compounds drawn at random from those above, as already listed:
Potency, inconclusive:
CCn1cc(C(=O)N2CCCC2)c(=O)c2cc(S(=O)(=O)N3CC(C)CC(C)C3)ccc21 (configuration not stated) 0.0052 µM [activator, full curve, poor fit]
Cc1ccc(S(=O)(=O)NCc2nc3ccccc3c(=O)n2N)cc1 4.11 µM [falling, full curve, poor fit]

Next part:

Lipid storage change, negative = inhibition, inconclusive:
CC(=O)O[C@]1(C(C)=O)CC[C@H]2[C@@H]3C=C(Cl)C4=CC(=O)CC[C@]4(C)[C@H]3CC[C@@]21C -55%
O=C(CSc1nccc(-c2cccs2)n1)Nc1cccc(Cl)c1Cl -55.3%
CCOC(=O)c1cncc(C#CCOC(=O)Nc2ccc(OC(F)(F)F)cc2)c1 13.7%
Cc1oc2c(C)c3oc(=O)c4c(c3cc2c1C)CCC4 1.83%
CC(C)c1ccc(NC(=O)CN2C(=O)NC(Cc3c[nH]c4ccccc34)C2=O)cc1 (configuration not stated) 17.3%
CCN(Cc1cc(=O)n2ccsc2n1)Cc1nc2cc(OC)c(OC)cc2c(=O)[nH]1 10.5%
CC(C)(C)NC(=O)COC(=O)CCC(=O)c1ccc(F)cc1 -56.6%
Cc1nn(Cc2ccc(Cl)cc2)c(Cl)c1/C=N/NC(=O)CNc1ccccc1F -74%
O=C(CNCc1ccccc1Cl)NCc1ccco1 18.3%
COc1ccc2c(C)cc(SCC(=O)Nc3ccc(Cl)cn3)nc2c1 -58.9%
CC1N(C(=O)N2CCOCC2)CCN1S(=O)(=O)c1ccc(Cl)cc1 (configuration not stated) 35.5%
CCOC(=O)c1cnn(-c2ccccc2)c1NC(=O)CN1CCCCC1 -13.1%
Cc1cccc(C)c1NC(=O)CNC(=O)c1ccc(NS(=O)(=O)c2ccc3[nH]c(=O)[nH]c3c2)cc1
COc1cccc(C2C(C(=O)c3cc4cccc(OC)c4o3)=C(O)C(=O)N2c2cc(C)on2)c1OC (configuration not stated) 60.4%
CCOC(=O)C1=C(C)N(C2CCCCC2)C(=O)C1 1.62%
O=C(NCc1ccco1)c1ccc(F)c(S(=O)(=O)N2CCCCC2)c1 41.8%
Cc1ccc(C)c(S(=O)(=O)NCCCN2CCOCC2)c1 22.8% [at 9.22 µM]
CCCc1nc(NC2CCCCC2)c(C#N)c2c1COC(C)(C)C2 1.5%
O=C(COc1ccc(S(=O)(=O)NCc2ccccc2)cc1Cl)NCc1ccncc1 -21.8%
COC(=O)CSc1nc2ncccc2[nH]1 4.89%
N=C1S/C(=C\c2ccco2)C(=O)N1c1ccc2c(c1)OCO2 21.1%
COC(=O)c1ccc(N2CCN(C)CC2)c(NC(=O)COc2ccc(C)cc2)c1 19.1%
COc1ccc(N2CCN(C(=O)c3cccc(NC(=O)c4ccco4)c3)CC2)cc1 21.9%
Cc1ccc(C2=CSC3=NS(=O)(=O)CCN23)cc1 -17.4%
CCOC(=O)[C@@H]1[C@H]2COc3ccc(Br)cc3[C@@H]2N2C(=O)N(c3ccc(Br)cc3)C(=O)[C@]12C 42.9%
Cc1ccc(N(CN2CCCC2=O)C(=O)c2ccc(OC(C)C)cc2)cc1 23.3%
COc1ccc(Br)cc1CNc1ccc(S(N)(=O)=O)cc1 12.4%
Cc1cc(C=C(C#N)C#N)c(C)n1-c1ccccc1 8.27%
CC(=O)Nc1ccc(S(=O)(=O)NCCc2ccc(S(N)(=O)=O)cc2)cc1 -39.6%
Cn1ncc2c(Nc3cccc(C(=O)O)c3)ncnc21 8.63%
CCc1ccc(C2CC(c3ccc(Cl)cc3)=NNC2=O)cc1 (configuration not stated) 215%
CC(O)Cc1nsc(NC(=O)c2cccs2)n1 (configuration not stated) -13.4%

Quoted from above (2 entries):
Lipid storage change, negative = inhibition, inconclusive:
O=C(CNCc1ccccc1Cl)NCc1ccco1 18.3%
COc1ccc2c(C)cc(SCC(=O)Nc3ccc(Cl)cn3)nc2c1 -58.9%

Following part:

outcome, inactive:
N#Cc1cccc(S(=O)(=O)Nc2c(NC3CCCCC3)c3ccccc3oc2=O)c1 inactive [at 46.1 µM]
